Here are results for 105 sequences from PubChem BioAssay AID1347423 (Functional Genomics Laboratory (NCATS/FGL), 2020).

About 210 (0.4%) of roughly 52,000 sequences were called active.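 Rule for the calls: active = gene whose silencing raises cell survival under the drug, median off-target-corrected z-score across its silencing RNAs 2 or more; inactive = the rest.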 Some of the results follow.

This assay is described as follows: Resistance to Poly (ADP-Ribose) Polymerase inhibitor: Gene Identification via Genome-wide siRNA Screen. To be noted: mouse BRCA2 R2336H ES cells, olaparib, CellTiter-Glo viability; active compounds read high. An outline of the steps: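 Genome-wide siRNA screen (3 siRNAs/gene, 20 nM) in mouse ES cells carrying hypomorphic BRCA2 R2336H; olaparib 500 nM added 48 h post-transfection, CellTiter-Glo viability 72 h later. Normalized to plate-median negative control; MAD z-scores, gene median, seed-adjusted.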
In general terms: ATP-based viability assays read luminescence as a measure of living cells.
Consider GGUCAACUCUACCAUAUCATT against Tnfsf8, for which the z-score is inactive: 0.94.
The value for GGAACAGGGCAGUAAGACCTT against Dhcr24 was inactive: 0.743; that for GGCCCUCAAAAAUCACGAGTT against Ehd1 was inactive: 1.72.
On to “GCUCCAGAUGGGUAGAUCUTT against 2210013M04Rik”, for which the z-score is inactive: 1.06.
The value for GGAAGAUGAAGAUGAGAAUTT against Igbp1b was inactive: -2.53.
Take GGCUGCAUGGUACAGAUCUTT against Olfr463: the z-score is inactive: -1.7.
Next, “GGAUACCAUGGUCGUCUGATT against 1700020O03Rik”: inactive: 0.0513; GGAAGAGUAAAGGAGAUUUTT against Spop: inactive: -2.04.
In the case of GGACACAAAAGUUCACAUUTT against Smpx, the z-score is inactive: -0.379.
On to GGAUUCUGACAAAACUGGATT against Nt5c1b, for which the z-score was inactive: -0.477.
The value for GGAGCAUCACUCUUAACAUTT against Krt2-6g was inactive: 2.34.
Next, GCGAUGUGGCCUAAAUAGGTT against Igfals: inactive: -0.243.
Consider GGACAGUCAUUACCAAAAATT against Topors, for which the z-score was inactive: -2.16.
Consider CCAAUAAAAGUUGAGAGCUTT against Krt1-18, for which the z-score is inactive: 0.386.
Next, CCUGAUGGAUGAUGAAUCATT against Trap1a: inactive: 0.865; CGUGCUGACUCAUAACCUGTT against Dnclic2: inactive: 0.943.
As for CGACACCAGUCUCAAUGAATT against Olfr368, the z-score is inactive: 0.0364.
For GGAGCCUCUAGGAAACAAATT against Slc28a3, the z-score is inactive: 0.575.
Regarding GGCUACAUUUCUGUUCUGATT against Hist1h2be, the z-score was inactive: 0.236.
On to GCCACUUAGAAAACCGUGUTT against Cox7a1, for which the z-score was inactive: -1.5.
Take “GCCCAAUAAAAUUGAAGGGTT against 4930479M11Rik”: the z-score was inactive: 0.532.
Consider GGAUUCUGGGCUGAAUGGGTT against Pcdh18, for which the z-score is inactive: 0.583.
Next, CCUCAAGUCUGUGAAGAAATT against Tnni1: inactive: -1.63.
As for GCUAGAAGCCUGACAUUUUTT against Tbca, the z-score was inactive: -1.85.
In the case of GAUCAUCACAGAGGUCCAGTT against Fabp6, the z-score is inactive: 0.231.
Next, GGCUGUAGUUGGCUAACACTT against Slc25a28: inactive: -1.74; “GCUACGGACCAUGUUCAAGTT against C130036J11”: inactive: -1.32; GGACCUCAUCUAUGCAUGUTT against Olfr1394: inactive: 0.236.
For GGUCAUUCAGCUGGAAGAUTT against Zfp143, the z-score is inactive: 1.72.
Take CACGGUAUAGCAGCUAUUATT against Mbtps2: the z-score is inactive: -1.65.
For GCUGUUCCACAUUGAAGUGTT against Pcdh18, the z-score was inactive: 0.115.
GCACAGGCUUAUGUUCCACTT against V1rd20: the z-score was inactive: -1.89.
“GGAGUCUAAACUGACAAACTT against 1700088E04Rik”: the z-score is inactive: -0.00276.
Next, GGAUGAUGCCGAUUACUUCTT against Vpreb3: inactive: -0.00674; “CCCUGGGUGUACAAGUCCUTT against 4933406J04Rik”: inactive: 0.573.
As to CCGACAGUCUUGAUAUUAATT against Cbx5, the z-score was inactive: 0.988.
With GGAUGUCAAACUCGCCCUGTT against Olfr61, the z-score is inactive: 0.307.
As for GGACUAACAACUCUGGUCUTT against Mea1, the z-score is inactive: -2.46.
The value for “GGACAUCCAGACUCUGAGATT against 2310004L02Rik” was inactive: 0.232.
Consider GGUCUGUGGACUGAACUUATT against Bcl2l11, for which the z-score was inactive: 0.73.
Take CCUUUUUCUGGAUUGGAAUTT against Klrd1: the z-score is active: 1.78.
In the case of GGAAGAGAGAGACAAGGAUTT against Dap, the z-score is inactive: -1.91.
GCAUAGUGAACACAAACGGTT against Rgs14: the z-score was inactive: 1.17.
For “GGAGGUUGCUACAUGGUUATT against 6530401C20Rik”, the z-score is inactive: 0.821.
As to GGAGAAAGGAUUGUGUUUGTT against Mgl1, the z-score is inactive: 1.01.
GGUAAAGAAGAUCGACAGCTT against Adrb1: the z-score was inactive: -0.362.
For GUACAACCACUAUGGCGACTT against Mfap2, the z-score was inactive: -0.877.
With GCAUAUUCUUCCAACUUCCTT against Sp8, the z-score was inactive: 1.2.
The value for GGGCAUAGAGUCUCAAACUTT against Ptger1 was inactive: 0.492; that for GCGGUAUCAUCAGUGAACCTT against Cxxc5 was inactive: -0.13.
Turning to GGAGGCUGUGUUCUGAUGGTT against Mlycd, the z-score is inactive: -2.38.
Turning to “GGCCAUUCUACUAACAGUATT against 1110014C03Rik”, the z-score was inactive: -1.05.
In the case of CCUAACAACCAGUUUAUGATT against Rasa1, the z-score was inactive: 0.285.
GGGAAAUUCUGUUCUUUUGTT against Gng11: the z-score is inactive: 0.319.
For GCAUAGGGUCAUUUCAAGCTT against Kif23, the z-score is inactive: 0.173.
As for GCUCGUUUGAUGCUGUCUCTT against Prkag1, the z-score was inactive: -0.486.
Next, GGAGUAGAUGACAACACUATT against Defb19: inactive: -0.629; GGAGUCUCUGAAGAAAACATT against Hus1: inactive: -0.527.
For the sequence GGUUUUGGUUUUGUGGAAUTT against Sfrs5, the z-score is inactive: -0.339.
Regarding GGCUUCAUUGACAAGAAUATT against Myo1g, the z-score is inactive: -0.469.
For GGUGAAAGUCACUAAAUCCTT against V1rc6, the z-score is inactive: 1.44.
Next, GCCAAAUGGUGUCAAUAUUTT against Rab33a: inactive: -0.443.
As to GGACAGAGAAAAAGUAUCATT against Eps8l1, the z-score is inactive: 0.0467.
Consider “GGCUUUCAAAUGAUUAAAGTT against D430033N04Rik”, for which the z-score is inactive: 1.92.
For the sequence GCACUUUGUGCUAGAUGAATT against Ddx39, the z-score is inactive: -0.865.
Next, GGAGAUGGUUAUUUAAAGATT against Wbp2: inactive: 1.53; CUCUGUCUUGAUUGUCAUUTT against Olfr1329: inactive: -0.213.
CCACUACAACAACACUUAUTT against Keg1: the z-score was inactive: 0.16.
Regarding “GGCAAUCUCCUUUAAUUGATT against 2810439M05Rik”, the z-score is inactive: 0.759.
Turning to CCAUGGAUAUUAUCUGUACTT against Olfr538, the z-score is inactive: -0.725.
As for GCACUUAGUCCUACAUGACTT against Fut1, the z-score was inactive: 0.125.
The value for GCUAUCGUGAUAAUCUGGATT against BC049816 was inactive: -0.392; that for GGGUUACGGUUGUGGAUGUTT against Ugdh was inactive: 0.0867; that for GGGACAAUGAUGUUUUUGUTT against AI662250 was inactive: 0.0717.
For the sequence GGUGGAGAUGAUGGUUCAGTT against Tbxa2r, the z-score is inactive: 1.75.
Consider “CCACUCUUAAGAGGAUAUATT against 4930572J05Rik”, for which the z-score was inactive: -0.224.
The value for GGUGACCAGGCUUAAAUCGTT against Bet1l was inactive: 0.291; that for CGAAGUGACAAUAAAUCAGTT against Snapc5 was inactive: 1.18; that for GGGAAGAAGAGGAAGGAUUTT against Taf1a was inactive: -1.4.
Turning to CGACCAUGUGACUUGUGUCTT against Lrp1b, the z-score was inactive: -0.569.
Consider CCAUCGAAUGAAACUCAUGTT against Trim24, for which the z-score is inactive: 0.397.
The value for GGCAGCUCCUCAUGAUAUUTT against Nagk was inactive: 1.35; that for “CGGAGAUUGUCCAAUGCAUTT against C630004H02Rik” was inactive: -0.524; that for GGGCAAUGCUCAUGAGUUATT against Figf was inactive: 0.459.
For GGAAUUCCUUCGUUUCCUUTT against Usp2, the z-score is inactive: 0.187.
Next, GGAUUAGCCUGGUCCUUUUTT against Dusp14: inactive: -0.621.
In the case of “GGACUCCAAGUCGCUCGUATT against 4930438O05Rik”, the z-score was inactive: -0.908.
The value for GUUCCUGUUCCACUACUGCTT against Sts was inactive: -1.51; that for GCGUGGUACCUCAAGUCUATT against Map3k5 was inactive: -0.437; that for GGAGGAAAGAAUGUGUAAATT against Birc3 was inactive: -0.544.
Next, GGUGUUAAACACUGAUUCUTT against Brs3: inactive: -0.118.
“GGUGGUGGUGCUUUUUGACTT against 1810054O13Rik”: the z-score was inactive: -0.0935.
“CGCAUACUGUAAAAACUUCTT against 2310010B21Rik”: the z-score is inactive: 0.435.
Consider GGCACUCUCAGCUUUUGACTT against Olfr2, for which the z-score is inactive: -0.248.
For GGAUUUUAUCUCCUUUCAATT against Tecta, the z-score was inactive: 1.5.
As for “GGAGAAACUUUUGUCUUCCTT against 2210409B01Rik”, the z-score is inactive: 1.17.
In the case of “GGCGUGGAAUCACUUUCCATT against B930093C12Rik”, the z-score is inactive: -0.421.
Regarding GGUCUGGAAUGGAGAACAGTT against Suox, the z-score is inactive: 1.27.
GAGCGAGUUCGAUUGCUUCTT against Cited4: the z-score was inactive: -0.0946.
For GCUUCGGAAUCGGUUACCATT against Alg2, the z-score is inactive: 0.756.
As for GGAUAUCCAAGUAAGGUGUTT against Mrpl9, the z-score is inactive: 0.692.
In the case of CCGAAGCUUUAUCUUCUAUTT against Pkd2, the z-score is inactive: 0.751.
The value for GGACAAAGGCUGUAUUUUCTT against Tgm3 was inactive: 1.61.
As for GGUUCUGACUUGAGAAAACTT against BC022687, the z-score was inactive: -0.323.
As to GCGAGAUGGAAGGAUCUUGTT against Anapc13, the z-score was inactive: -2.4.
